This assay concerns P388 leukemia ip, CD2F1 mice, survival T/C. Nature of the assay: NCI In Vivo Anticancer Drug Screen. Data for tumor model P388 Leukemia (intraperitoneal) in CD2F1 (CDF1) mice. The conditions noted are these: T/C endpoint: median survival time, higher T/C = longer survival.
The mark [1] stands for this setting: dose: 1.56 mg/kg/injection, schedule: Q01DX009 (ip), vehicle: saline with Tween-80.
Setting [2] is: dose: 25.0 mg/kg/injection, schedule: Q01DX005 (ip), vehicle: saline with Tween-80.
Setting [3] is: dose: 50.0 mg/kg/injection, schedule: Q01DX005 (ip), vehicle: saline with Tween-80.
The mark [4] stands for this setting: dose: 100.0 mg/kg/injection, schedule: Q01DX005 (ip), vehicle: saline with Tween-80.
Where [5] appears, read: dose: 200.0 mg/kg/injection, schedule: Q01DX005 (ip), vehicle: saline with Tween-80.
[6] abbreviates: dose: 240.0 mg/kg/injection, schedule: Q01DX005 (ip), vehicle: saline with Tween-80.
[7] abbreviates: dose: 60.0 mg/kg/injection, schedule: Q01DX005 (ip), vehicle: saline with Tween-80.
Where [8] appears, read: dose: 120.0 mg/kg/injection, schedule: Q01DX005 (ip), vehicle: saline with Tween-80.

The structures appear in SMILES notation. The list is a part of this screen's results and no random one: it is rich in T/C values a quarter to a half above the control, in often repeated tests (any T/C) and in doses without a T/C. Further doses and runs are listed elsewhere. T/C is the treated group as % of the vehicle group. Some entries give survivors of the animals treated and no T/C: the source holds a T/C of zero for them, seemingly a mark for toxic or unscored doses. Some survivor counts are full or nearly so, which does not show that the dose was tolerated: survival well below the control is almost never listed, so the zero probably covers shortened survival too. Survivors were counted at the toxicity check, usually on the fifth day, unless a day is given; later deaths do not show. Schedules are NCI's codes, read here as Q, the interval in days (D) or hours (H), X, the number of doses. Where survival is the endpoint, the PubChem record calls one and a half times the control and up active, and a quarter to a half above the control has no call in these data; cut-offs in other NCI protocols can differ. Some doses were run more than once; their values stand side by side, smallest first. Some T/C values carry the count of animals alive at the toxicity check (mostly the fifth day); without a count, all were alive then.

As to `COc1cc2c(cc1OC)C1C(=O)c3ccc4c(c3OC1CO2)CC(C(C)(O)CO)O4` (stereo unspecified), the survivor count (dose: 40.0 mg/kg/injection, schedule: Q01DX005 (ip), vehicle: DMSO) is 0 of 6.
`CC1C(C)(C)P(C)(=O)C1(C)C` (stereo unspecified): the survivor count (dose: 400.0 mg/kg/injection, schedule: Q04DX002 (ip), vehicle: saline with Tween-80) is on record as 0 of 6.
On to `O=c1[nH]cnc2nn(C3OC(CO)C(O)C3O)cc12` (stereo unspecified), for which, under setting [1], the T/C was 135 % of control and the survivor count is listed as 6 of 6. For the same molecule, the survivor count (dose: 6.25 mg/kg/injection, schedule: Q01DX009 (ip), vehicle: saline with Tween-80) is recorded as 6 of 6.
As for `Nc1ncnc2c1cnn2Cc1ccc(Cl)cc1`, the survivor count (dose: 200.0 mg/kg/injection, schedule: Q01DX009 (ip), vehicle: saline with Tween-80) is 6 of 6.
Turning to `Ic1ccc(N=Cc2ccc(C=Nc3ccc(I)cc3)cc2)cc1`, the survivor count (dose: 50.0 mg/kg/injection, schedule: Q01DX009 (ip), vehicle: Klucel (hydroxypropylcellulose) (HPC)) is given as 6 of 6.
As to `CC(=O)NCc1ccc(N2C(N)=NC(N)=NC2(C)C)cc1`, the survivor count is, setting by setting: (dose: 100.0 mg/kg/injection, schedule: Q04DX002 (ip), vehicle: saline) 6 of 6; (dose: 200.0 mg/kg/injection, schedule: Q04DX002 (ip), vehicle: saline) 0 of 6; (dose: 400.0 mg/kg/injection, schedule: Q04DX002 (ip), vehicle: saline) 0 of 6.
Turning to `Cc1cccc(/C=N/Nc2nc3ccccc3s2)n1`, the survivor count under setting [2] was 6 of 6, the survivor count under setting [3] is 6 of 6 and the survivor count under setting [4] is recorded as 6 of 6.
In the case of `C=CC1CN2CCC1CC2C(O)c1ccnc2ccc(OC)cc12` (stereo unspecified), the survivor count under setting [5] is reported as 2 of 6.
`COc1ccc(N2C(=O)/C(=C/c3ccccc3)N=C2/C=C/c2ccc(Cl)cc2)cc1`: the survivor count is reported as 2 of 6 (dose: 120.0 mg/kg/injection, schedule: Q01DX005 (ip), vehicle: Klucel + Tween-80) and 3 of 6 (dose: 240.0 mg/kg/injection, schedule: Q01DX005 (ip), vehicle: Klucel + Tween-80).
Regarding `COc1cccc2c1C(=O)c1c(O)c3c(c(O)c1C2=O)C[C@@](O)(C(C)=O)C[C@@H]3OC1CC(N2CCOCC2C#N)C(O)C(C)O1` (stereo partly specified), the T/C (dose: 0.1 mg/kg/injection, schedule: Q04DX003 (ip), vehicle: water) was 131 % of control. The survivor count by setting is: (dose: 0.78 mg/kg/injection, schedule: Q04DX003 (ip), vehicle: distilled water + Tween-80) 6 of 6 on day 9; (dose: 1.56 mg/kg/injection, schedule: Q04DX003 (ip), vehicle: distilled water + Tween-80) 2 of 6 on day 9; (dose: 3.12 mg/kg/injection, schedule: Q04DX003 (ip), vehicle: distilled water + Tween-80) 0 of 6 on day 9; (dose: 6.25 mg/kg/injection, schedule: Q04DX003 (ip), vehicle: distilled water + Tween-80) 0 of 6 on day 9; (dose: 12.5 mg/kg/injection, schedule: Q04DX003 (ip), vehicle: distilled water + Tween-80) 0 of 6 on day 9.
In the case of `NC(=S)N/N=C/C1=C(Cl)c2ccccc2C1`, the survivor count runs as follows: under setting [2], 0 of 6; under setting [3], 0 of 6; under setting [4], 0 of 6; under setting [5], 0 of 6.
`O=C1c2cccnc2-c2ncccc21`: under setting [6], the survivor count was 3 of 6.
Consider `Cc1ccnc(NCc2ccccn2)c1`, for which, under setting [5], the survivor count is 0 of 6.
Regarding `O=C(OCCOc1ccc(C(F)(F)F)cc1[N+](=O)[O-])c1ccc(Cl)cc1Cl`, the survivor count under setting [7] is listed as 6 of 6, the survivor count under setting [8] was 6 of 6 and the survivor count under setting [6] is reported as 6 of 6.
In the case of `CN(C)CCCC1(c2ccccc2)SC(C)(C)c2ccc(Cl)cc21` (stereo unspecified), the survivor count (dose: 100.0 mg/kg/injection, schedule: Q01DX001 (ip), vehicle: Klucel (hydroxypropylcellulose) (HPC)) was 1 of 6.
Take `NC(=O)NC(=O)C(Cc1ccc(Cl)cc1)c1ccccc1` (stereo unspecified): the survivor count by setting is: under setting [7], 6 of 6; under setting [8], 6 of 6.
Turning to `CC(=O)NC(Cc1cnc[nH]1)C(C)=O` (stereo unspecified), the survivor count by setting is: (dose: 50.0 mg/kg/injection, schedule: Q01DX009 (ip), vehicle: saline) 0 of 6; (dose: 100.0 mg/kg/injection, schedule: Q01DX009 (ip), vehicle: saline) 0 of 6; (dose: 200.0 mg/kg/injection, schedule: Q01DX009 (ip), vehicle: saline) 0 of 6.
On to `[N-]=[N+]=NC(=O)c1cnn(-c2ccccc2)c1N`, for which the survivor count runs as follows: under setting [8], 0 of 6; under setting [6], 0 of 6.
For `O=C(N/N=C\c1cccc2ccccc12)C(=O)N/N=C/c1cccc2ccccc12`, the survivor count under setting [3] is reported as 6 of 6.
Consider `N=C(N)c1ccc(/C=C/c2cc3ccc(C(=N)N)cc3[nH]2)cc1`, for which the T/C (dose: 12.5 mg/kg/injection, schedule: Q04DX003 (ip), vehicle: saline) is 125 % of control; the T/C (dose: 25.0 mg/kg/injection, schedule: Q04DX003 (ip), vehicle: saline) was 136 % of control; the T/C (dose: 100.0 mg/kg/injection, schedule: Q04DX003 (ip), vehicle: saline) was 144 % of control [5 of 6 alive]. For the same molecule, the survivor count reads like this: (dose: 200.0 mg/kg/injection, schedule: Q04DX003 (ip), vehicle: saline) 0 of 6; (dose: 400.0 mg/kg/injection, schedule: Q04DX003 (ip), vehicle: saline) 0 of 6.
For the molecule `C=C1C(=O)OC2/C=C(\COC(C)=O)CCC(OC(C)=O)C3=CC(OC3=O)C12` (stereo unspecified), the survivor count reads like this: (dose: 15.0 mg/kg/injection, schedule: Q01DX009 (ip), vehicle: Klucel (hydroxypropylcellulose) (HPC)) 6 of 6; (dose: 30.0 mg/kg/injection, schedule: Q01DX009 (ip), vehicle: Klucel (hydroxypropylcellulose) (HPC)) 5 of 6; (dose: 60.0 mg/kg/injection, schedule: Q01DX009 (ip), vehicle: Klucel (hydroxypropylcellulose) (HPC)) 1 of 6; (dose: 120.0 mg/kg/injection, schedule: Q01DX009 (ip), vehicle: Klucel (hydroxypropylcellulose) (HPC)) 0 of 6.
`CN1C(c2ccccc2)CC(C)(O)CC1c1ccccc1` (stereo unspecified): the survivor count under setting [6] is on record as 0 of 6.
With `O=c1ccnc(Sc2ccc([N+](=O)[O-])cc2[N+](=O)[O-])[nH]1`, the survivor count (dose: 400.0 mg/kg/injection, schedule: Q04DX003 (ip), vehicle: saline with Tween-80) was 3 of 6.
Turning to `Nc1cc(S(=O)(=O)c2ccc(O)c(N)c2)ccc1O`, the survivor count (dose: 600.0 mg/kg/injection, schedule: Q01DX009 (ip), vehicle: saline) is recorded as 2 of 6.
For the molecule `COc1cccc2c1C(=O)c1c(O)c3c(c(O)c1C2=O)CC(O)(C(C)=O)CC3OC1CC(N/C(C)=C/C(C)=O)C(O)C(C)O1` (stereo unspecified), the T/C (dose: 50.0 mg/kg/injection, schedule: Q04DX003 (ip), vehicle: distilled water + Tween-80) was 128 and 132 % of control; the T/C (dose: 100.0 mg/kg/injection, schedule: Q04DX003 (ip), vehicle: distilled water + Tween-80) is 144 % of control.
`Cc1c(C2=C(Br)C(=O)N(C)C2=O)c(=O)n(C)c(=O)n1C`: the survivor count (dose: 240.0 mg/kg/injection, schedule: Q01DX005 (ip), vehicle: Klucel (hydroxypropylcellulose) (HPC)) was 0 of 6.
On to `c1ccc([P+](CC[P+](c2ccccc2)(c2ccccc2)c2ccccc2)(c2ccccc2)c2ccccc2)cc1`, for which the survivor count is, setting by setting: (dose: 3.13 mg/kg/injection, schedule: Q01DX009 (ip), vehicle: saline) 5 of 6; (dose: 6.25 mg/kg/injection, schedule: Q01DX009 (ip), vehicle: saline) 2 of 6; (dose: 12.5 mg/kg/injection, schedule: Q01DX009 (ip), vehicle: saline) 0 of 6; (dose: 25.0 mg/kg/injection, schedule: Q01DX009 (ip), vehicle: saline) 0 of 6.
As for `O=C1Nc2ccccc2C12Nc1ccccc1N2`, the survivor count (dose: 100.0 mg/kg/injection, schedule: Q04DX003 (ip), vehicle: Klucel (hydroxypropylcellulose) (HPC)) was 6 of 6 and the survivor count (dose: 400.0 mg/kg/injection, schedule: Q04DX003 (ip), vehicle: Klucel (hydroxypropylcellulose) (HPC)) is 6 of 6.
